Test results reported in PubChem BioAssay AID2685 (National Center for Advancing Translational Sciences (NCATS), 2010).
Out of some 320,000 compounds screened, about 2,100 (0.66%) were called active. The shares of active, inactive and inconclusive entries below differ from those in the screen. The call rests on the fitted dose curve; in most records, active means well fitted inhibition curve with a large enough effect in the signal ratio, with a control signal flat (not every such curve was filed as active); inconclusive means small, poorly fitted or top-dose-only effect, or effect the other way, or a change in a side signal; inactive means flat fitted curve, though single readings scatter; the % refers to the signal ratio. A potency beside an inconclusive call is a rough fit, not a confirmed value.

Assay: qHTS Assay for Lipid Storage Modulators in Drosophila S3 Cells
Conditions: BODIPY lipid droplet fluorescence, 18-24 h, cells fed with added oleic acid; lipid storage change, negative = inhibition: at 46.1 µM (top of the series) unless noted
How it was run: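 Laser-scanning cytometry quantifies lipid droplet accumulation (500–530 nm total intensity; droplet/cell object ratio) in oleic acid-fed (400 uM added) Drosophila S3 cells treated with a concentration series. 20 uM Triacsin C defined 100% inhibition.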
On the % scale 0 is the no-effect control and ±100 the full control effect; potency means the concentration at half of the fitted maximal effect.

SMILES	lipid storage change, negative = inhibition	Potency
COC(=O)c1ccc(C(=O)Nc2ccc3nc(-c4cccnc4)[nH]c3c2)cc1	inconclusive: 21.4%	–
CSCCC(NC(=O)OC(C)(C)C)C(=O)Oc1ccc2c(=O)c(-c3ccc4c(c3)OCCO4)coc2c1 (configuration not stated)	inconclusive: -3.91%	–
O=C(CCCCn1c(=O)[nH]c2ccsc2c1=O)NCc1ccc2c(c1)OCO2	inconclusive: 24.9% [at 9.22 µM]	–
Cc1ccc(-c2cc(C(=O)Nc3ccc(S(=O)(=O)Nc4nc(C)cc(C)n4)cc3)c3ccccc3n2)cc1	inconclusive: 31%	–
N#CC1=C(N)NC(SCC(=O)Nc2ccc(Br)cc2)=C(C#N)C12CCCCC2	–	inconclusive: 0.517 µM [rising, full curve]
CC(C)(C)NS(=O)(=O)c1ccc(NC(=O)c2cc(-c3ccccc3)nc3ccccc23)cc1	inconclusive: -53.8%	–
CC(OC(=O)C1CCN(c2ccc(C(F)(F)F)cn2)CC1)C(=O)Nc1cccc([N+](=O)[O-])c1 (configuration not stated)	inconclusive: -41.3%	–
COc1cccc(-c2csc(N3CCN(CC(=O)Nc4ccc5c(c4)OCO5)CC3)n2)c1	–	inconclusive: 6.51 µM [activator, partial curve]
CC1(C)CC2CC(C)(CN2C(=O)c2ccc([N+](=O)[O-])cc2[N+](=O)[O-])C1 (configuration not stated)	inconclusive: -46.8%	–
COc1ccc(C(=O)NCCNc2nc3cc(C)c(C)cc3cc2C)cc1	–	inconclusive: 8.2 µM [activator, partial curve]
Cc1cn(C2OC[C@@H](O)[C@@H]2CO)c(=O)[nH]c1=O (some centres not stated)	inconclusive: 391%	–
O=C(Nc1ccc(S(=O)(=O)Nc2nccs2)cc1)c1ccc(=O)[nH]c1	–	inconclusive: 0.0052 µM [falling, full curve, poor fit]
CC(C)(C)c1nnc(N/N=C/c2ccccc2O)n(N)c1=O	–	inconclusive: 20.6 µM [falling, single point]
Cc1cccc(C)c1NC(=O)CN(C)C(=O)c1ccc(N2C(=O)CCC2=O)cc1	inconclusive	–
COc1ccc(S(=O)(=O)N2CCC(O)(c3ccc4c(c3)OCO4)CC2)cc1	–	inconclusive: 13 µM [rising, partial curve]
CN(CC(=O)Nc1ccccc1F)CC(=O)Nc1ccc(F)c(F)c1F	–	inconclusive: 29.1 µM [activator, single point]
Cc1ccc(C)c(-c2nnc(NC(=O)CS(=O)(=O)c3ccccc3)o2)c1	inconclusive	–
CC1CCN(S(=O)(=O)c2ccc3c(c2)c(=O)c(C(=O)NCc2cccs2)cn3C)CC1	inconclusive: 5.42%	–
O=C(Cc1ccc(-c2ccccc2)cc1)OCC(=O)N1CCCC1=O	inconclusive: -3.24%	–
Cc1cc(N(C)C)c(C#N)c(N2CCCCC2)n1	inconclusive: -4.77%	–
CCn1c(=O)cc(OCC(=O)N2CCc3ccccc32)c2ccccc21	inconclusive: 26%	–
CC(C)OCCCn1c(=S)[nH]c2cc3c(cc2c1=O)OCO3	–	inconclusive: 23.1 µM [falling, single point]
CCOC(=O)C1(CCCc2ccccc2)CCN(C(=O)Cn2nc(C)nc2C)CC1	inconclusive: -15.6%	–
Cc1ccc(S(=O)(=O)NC(=O)Nc2ccc(OC(F)F)cc2)cc1	inactive	–
CCCNCc1cc(OC)c(OCC(=O)Nc2ccccc2)cc1Br	inconclusive: 78.7%	–
CCN(c1ccccc1)S(=O)(=O)c1ccc(Cl)c(C(=O)NCc2ccco2)c1	inconclusive: -6.34%	–

For reference, some entries already given.
SMILES	lipid storage change, negative = inhibition	Potency
Cc1cccc(C)c1NC(=O)CN(C)C(=O)c1ccc(N2C(=O)CCC2=O)cc1	inconclusive	–
COc1ccc(S(=O)(=O)N2CCC(O)(c3ccc4c(c3)OCO4)CC2)cc1	–	inconclusive: 13 µM [rising, partial curve]

(list continues)

SMILES	lipid storage change, negative = inhibition	Potency
CC(=O)c1cccc(CN2CCCC(C(=O)Nc3cccc(-n4cccn4)c3)C2)c1 (configuration not stated)	inconclusive: -57.2%	–
CCC(C(=O)OCn1nnc2ccccc2c1=O)c1ccccc1 (configuration not stated)	inconclusive: -15.8%	–
COc1ccc2[nH]cc(CCNC(=O)COc3ccc4ccc(=O)oc4c3)c2c1	–	inconclusive: 2.06 µM [falling, full curve, poor fit]
O=C(O)c1ccccc1COc1ccccc1Cl	inconclusive: 9.84%	–
CCCOP(=O)(c1ccc(N(C)C)cc1)C(Nc1ccccc1)c1ccc(C)cc1 (configuration not stated)	inconclusive: -10.9%	–
O=C(c1cccnc1)N1CCC(Oc2ccc(C(=O)N3CCCCO3)cc2)CC1	inconclusive: 20.8%	–
S=c1[nH]nc(-c2cc(-c3ccccc3)n[nH]2)n1/N=C/C=C/c1ccccc1	inactive	–
O=C(CSc1nc2ccccc2[nH]1)N/N=C/C=C\c1ccccc1[N+](=O)[O-]	inconclusive: 22.4%	–
N=C1C(c2ccccc2)=C(O)CN1c1cccc(S(=O)(=O)N2CCCCC2)c1	inconclusive: 8.82%	–
CCOC(=O)c1csc(Nc2nc3ccc(F)cc3s2)n1	inconclusive: -23%	–
COCCn1c(C)cc(C(=O)CSc2nc3ccccc3c(=O)n2Cc2ccco2)c1C	inconclusive: -5.57%	–
CC1(C)C2CC=C(/C=N/NC(=O)c3ccc(Cl)cc3)C1C2 (configuration not stated)	inconclusive: 13.8%	–
Cc1ccc(S(=O)(=O)NCC(=O)OCC(=O)c2cc(C)n(-c3ccccc3)c2C)cc1	inconclusive: -19.8%	–
O=C(O)c1cc(N2C(=O)C3CC=CCC3C2=O)ccc1NCc1cccnc1 (configuration not stated)	inconclusive: 0.101%	–
CC(C)CN1C(=O)C(=O)N(CC(=O)N2c3ccccc3NC(=O)CC2C)C1=O (configuration not stated)	inconclusive: -21.3%	–
COc1ccc2[nH]c3c(c2c1)CCN1C(=O)N([C@@H](C)C(=O)NCc2ccco2)C(=O)[C@]31C	inconclusive: 6.1%	–
CCn1c(CSc2ncn[nH]2)nc2cc(C(=O)O)ccc21	inconclusive: 11.7%	–
O=[N+]([O-])c1ccc2c(c1)[nH]c(=S)n2-c1ccccc1	inconclusive: -54.5%	–
CSCCC(NC(=O)COc1ccccc1)C(=O)O (configuration not stated)	inconclusive: 2.12%	–
COc1cc([N+](=O)[O-])cc(/C=N/NC(=O)c2cc(-c3ccccc3)nc3ccccc23)c1O	inconclusive: -6.31%	–
COc1ccccc1OCc1ccc(C(=O)Nc2ccccc2F)cc1	inconclusive: -14.6%	–
Cn1ncc2c(=O)[nH]cnc21	inconclusive: -5.36%	–
CCn1c(CSc2nc3ccccc3s2)nnc1SCC(=O)c1ccc2c(c1)OCCO2	inconclusive: 6.4%	–
CC(=O)Nc1ccc(S(=O)(=O)N2CCC(c3nc4c(nnn4Cc4ccccc4Cl)c(=O)[nH]3)CC2)cc1	inconclusive: 66%	–
Cc1ccccc1NC(=O)CCCNC(=O)c1ccc(Cl)cc1	–	inconclusive: 20.6 µM [activator, single point]
COc1ccc(CN(Cc2cc3cc(C)ccc3[nH]c2=O)C(=O)N(C)C)cc1	–	inconclusive: 4.61 µM [activator, partial curve]

A draw from above in order of number of heavy atoms, low to high.
SMILES	lipid storage change, negative = inhibition	Potency
Cn1ncc2c(=O)[nH]cnc21	inconclusive: -5.36%	–
Cc1cn(C2OC[C@@H](O)[C@@H]2CO)c(=O)[nH]c1=O (some centres not stated)	inconclusive: 391%	–
O=C(O)c1ccccc1COc1ccccc1Cl	inconclusive: 9.84%	–
O=[N+]([O-])c1ccc2c(c1)[nH]c(=S)n2-c1ccccc1	inconclusive: -54.5%	–
CCOC(=O)c1csc(Nc2nc3ccc(F)cc3s2)n1	inconclusive: -23%	–
CC(C)(C)c1nnc(N/N=C/c2ccccc2O)n(N)c1=O	–	inconclusive: 20.6 µM [falling, single point]
Cc1ccccc1NC(=O)CCCNC(=O)c1ccc(Cl)cc1	–	inconclusive: 20.6 µM [activator, single point]
Cc1ccc(S(=O)(=O)NC(=O)Nc2ccc(OC(F)F)cc2)cc1	inactive	–
CCCNCc1cc(OC)c(OCC(=O)Nc2ccccc2)cc1Br	inconclusive: 78.7%	–
COc1ccccc1OCc1ccc(C(=O)Nc2ccccc2F)cc1	inconclusive: -14.6%	–
COc1ccc(C(=O)NCCNc2nc3cc(C)c(C)cc3cc2C)cc1	–	inconclusive: 8.2 µM [activator, partial curve]
N=C1C(c2ccccc2)=C(O)CN1c1cccc(S(=O)(=O)N2CCCCC2)c1	inconclusive: 8.82%	–
O=C(c1cccnc1)N1CCC(Oc2ccc(C(=O)N3CCCCO3)cc2)CC1	inconclusive: 20.8%	–
CCCOP(=O)(c1ccc(N(C)C)cc1)C(Nc1ccccc1)c1ccc(C)cc1 (configuration not stated)	inconclusive: -10.9%	–
CC1CCN(S(=O)(=O)c2ccc3c(c2)c(=O)c(C(=O)NCc2cccs2)cn3C)CC1	inconclusive: 5.42%	–
COc1ccc2[nH]c3c(c2c1)CCN1C(=O)N([C@@H](C)C(=O)NCc2ccco2)C(=O)[C@]31C	inconclusive: 6.1%	–
CC(OC(=O)C1CCN(c2ccc(C(F)(F)F)cn2)CC1)C(=O)Nc1cccc([N+](=O)[O-])c1 (configuration not stated)	inconclusive: -41.3%	–
CC(=O)Nc1ccc(S(=O)(=O)N2CCC(c3nc4c(nnn4Cc4ccccc4Cl)c(=O)[nH]3)CC2)cc1	inconclusive: 66%	–
Cc1ccc(-c2cc(C(=O)Nc3ccc(S(=O)(=O)Nc4nc(C)cc(C)n4)cc3)c3ccccc3n2)cc1	inconclusive: 31%	–

Additional compounds follow.

SMILES	lipid storage change, negative = inhibition	Potency
O=C(NCCO)C(=O)Nc1cc2c3c(c1)CCN3C(=O)CC2	inactive	–
COc1cccc(C2CC(c3ccc(C(C)C)cc3)n3nc(N)nc3N2)c1 (configuration not stated)	inconclusive: 61.2% [activator]	–
COc1ccc(Cl)cc1NC(=O)CN(C)CC(=O)Nc1cc(OC)c(OC)c(OC)c1	inconclusive: 18.3%	–
COc1ccc(C(=O)CSc2nnc(-c3ccc(S(=O)(=O)N4CCOCC4)cc3)o2)cc1	–	inconclusive: 0.116 µM [cytotoxic, full curve, poor fit]
CCOC(=O)N1CCN(C(=O)c2ccc(Cn3c(=S)[nH]c4cc(C(=O)OC)ccc4c3=O)cc2)CC1	inconclusive: 352%	–
CCc1nc(Nc2ccccc2F)c2oc3ccccc3c2n1	–	inconclusive: 29.1 µM [cytotoxic, single point]
CC1(C)NC(=O)N(CCCOc2ccc3c(c2)CCC3)C1=O	–	inconclusive: 0.82 µM [falling, full curve, poor fit]
CCOC(=O)Cc1nn(CCc2ccccn2)c(=O)c2ccccc12	–	inconclusive: 2.91 µM [activator, partial curve]
Cc1cccc(C)c1NC(=O)CN(C)C(=O)CN1C(=O)NC(C)(C)C1=O	inconclusive: 9.52%	–
COc1ccccc1/C=C/C1(C(=O)NC2CCCC2)CC(=O)N1c1ccc(F)cc1 (configuration not stated)	inactive	–
COC(=O)CN=Cc1c(C)[nH]n(-c2ccccc2)c1=O	inconclusive: 12.1%	–
CN(C)c1ccnc2sc(C(=O)c3ccc(Br)cc3)c(N)c12	inconclusive: 129%	–
COc1ccc(N2CCN(CC(O)COc3ccc(F)cc3)CC2)cc1 (configuration not stated)	inconclusive: 11.5%	–
CCOc1cccc2sc(N(CCN(C)C)C(=O)c3ccc4ccccc4c3)nc12	–	inconclusive: 29.1 µM [activator, single point]
CCN(CC)C(=O)Cn1c(=O)oc2ccccc21	inconclusive: -16.1%	–
Cc1cccc(N2CC(C(=O)O)CC2=O)c1 (configuration not stated)	inconclusive: -21.3%	–
COc1ccc(/C=C/c2c([N+](=O)[O-])c(=O)n(C)c(=O)n2C)cc1O	inconclusive: -11.1%	–
CCOC(=O)c1c(C)[nH]c2ccc(O)cc12	inconclusive: -40.9%	–
NC(=O)c1nsc(C(=O)N(CCCN2CCOCC2)C(C(=O)NC2CCCCC2)c2ccc(Cl)cc2)c1N (configuration not stated)	inconclusive: 36.9%	–
O=S(=O)(NCc1ccccc1)c1ccc2ccccc2c1	inconclusive: 0.223%	–
Cc1cc2cc(NC(=O)c3ccco3)ccc2[nH]1	inconclusive: 38%	–
Cc1nn(CC(=O)NCCc2ccc(Cl)cc2)c(C)c1[N+](=O)[O-]	inconclusive: 5.43%	–
Cc1cccc(C(=O)NNC(=O)C2CCN(C(=O)OC(C)(C)C)CC2)c1	inconclusive: 6.05%	–
COc1ccccc1CNC(=O)C(=O)c1cn(CC(=O)N2CCOCC2)c2ccccc12	–	inconclusive: 18.4 µM [activator, partial curve]
CCCCCCNC(=O)c1ccc(Br)o1	inconclusive: 19.2%	–
